# Primary screen of a compound library

Sequences of proteins named here, by UniProt entry; tags and fusion partners are left off.
UniProt P9WNZ1, whole entry: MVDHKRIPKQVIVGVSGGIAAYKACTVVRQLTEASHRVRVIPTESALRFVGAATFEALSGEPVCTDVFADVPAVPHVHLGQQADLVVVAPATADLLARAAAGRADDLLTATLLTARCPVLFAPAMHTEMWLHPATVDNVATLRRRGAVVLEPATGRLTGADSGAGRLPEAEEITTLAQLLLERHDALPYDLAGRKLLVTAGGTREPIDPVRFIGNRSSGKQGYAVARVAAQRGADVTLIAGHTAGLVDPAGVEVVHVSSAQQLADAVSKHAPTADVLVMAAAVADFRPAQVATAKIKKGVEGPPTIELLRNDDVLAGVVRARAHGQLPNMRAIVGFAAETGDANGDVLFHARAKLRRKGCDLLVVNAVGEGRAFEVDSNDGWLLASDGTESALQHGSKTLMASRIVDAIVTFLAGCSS
UniProt P9WFT3, whole entry: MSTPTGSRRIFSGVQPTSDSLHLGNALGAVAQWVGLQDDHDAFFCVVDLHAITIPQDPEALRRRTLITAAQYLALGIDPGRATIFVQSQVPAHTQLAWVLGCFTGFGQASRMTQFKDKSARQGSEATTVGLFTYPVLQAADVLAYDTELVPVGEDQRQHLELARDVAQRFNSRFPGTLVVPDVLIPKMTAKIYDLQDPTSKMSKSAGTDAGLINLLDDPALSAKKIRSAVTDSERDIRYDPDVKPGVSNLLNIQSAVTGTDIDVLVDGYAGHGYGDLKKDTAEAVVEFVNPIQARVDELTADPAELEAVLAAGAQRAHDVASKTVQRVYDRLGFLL

Source: ChEMBL document CHEMBL3988442, “University of Dundee, Small-Polar-MMV Screening Library” (2021).

CoaBC: 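Enzyme assay of CoaBC with a phosphate dye (Biomol Green) read at 650 nm. Target: Coenzyme A biosynthesis protein CoaBC, Mycobacterium tuberculosis (UniProt P9WNZ1). Concentration: 30 µM. Direction is inferred from only a few compounds that gave an IC50; most scored high, so higher reads as stronger inhibition. Most strong results did not repeat in a second test. Of about 67,000 compounds tested this way, about 40 (0.06%) reached 50% or more in at least one test.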
MtTrpRS: 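Tryptophan-tRNA ligase, Mycobacterium tuberculosis (UniProt P9WFT3). Enzyme assay of tryptophanyl-tRNA synthetase; the read-out is not stated. Compounds at 10 µM. Higher most likely means stronger inhibition; the record gives no direction and few retests gave an IC50. Of about 65,000 compounds tested this way, about 64 (0.098%) reached 50% or more in at least one test.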

Values are the deposited “Percent Effect”, in %. The controls that fix the scale are not given in the record; negative values are as filed. Compounds were drawn at random from those tested, without regard to their results. Two or more numbers in one place are separate tests of the same structure; such repeats can differ widely. A dash means the value is not listed here; it may have been measured.

structure | CoaBC | MtTrpRS
CC(C)NC(=O)C1(CC2CC(c3ccc(F)cc3)=NO2)CCNCC1 (stereo unspecified) | -1.142% | 3.646%
CSCCCN1C[C@H](NC(=O)c2cnn(C)c2)[C@@H](C2CC2)C1 | 4.665% | 0.2441%
COCCOc1ccc(NC(=O)N(C)Cc2ccsc2)cn1 | -3.342% | 6.058%
C/C(Cl)=C/CNC(=O)[C@H]1CC[C@]2(CC1)CN(C)C(=O)c1ccccc1O2 | -7.99% | -3.198%
O=C(CSc1ccccc1)N1C[C@H]2CC[C@@H]1CN(Cc1ccncc1)C2 | -19.96% | -0.1006%
O=C(c1c2c(NCC3CC3)ncnc2n2ccccc12)N1CCOCC1 | 7.943% | 0.541%
CN(C)C(=O)N1CCn2nc(CNC(=O)CCC(F)(F)F)cc2C1 | 6.329% | -6.825%
CCc1nccn1CC(=O)Nc1cccc(C(=O)OC)c1 | -0.4819% | -2.265%
CCc1nnc2n1CCN(C(C(=O)N(CC)CC)c1ccccc1)C2 (stereo unspecified) | 3.906% | 0.7282%
COc1cccc(COCC(=O)NC(C(N)=O)c2ccccc2F)c1 (stereo unspecified) | -6.159% | 13.12%
CNc1ccccc1C(=O)N(C)CCc1ccccc1 | -2.427% | -0.7843%
c1ccc(OCc2nnn3c2CN(c2ncccn2)CCC3)nc1 | - | 0.2907%
O=C(CN1CC(c2ccccc2)CC1=O)N1CCN(c2nccs2)CC1 (stereo unspecified) | 4.784% | 2.637%
NC(=O)CN(CC(=O)NCc1cccc(Cl)c1)C1CCCC1 | 1.873% | -2.658%
COc1cn(CC(N)=O)c(CSc2nc(C)cc(C)n2)cc1=O | 0.3817% | 2.821%
Cc1noc(C2CCCN(C(=O)c3ccc(F)cc3F)C2)n1 (stereo unspecified) | 7.127% | 0.7323%
CCOC[C@@H]1CCC[C@]12CN(S(=O)(=O)c1cn(C)cn1)CCO2 | 1.818% | -
COc1ccc(F)cc1C(=O)N(C)Cc1cc(C)on1 | 3.627% | -1.559%
O=C1CC2(CCN(CCCO)CC2)CN1Cc1ccc(F)c(F)c1 | 1.564% | 0.2935%
O=C(Cn1ccc2ccccc21)NCc1cc(N2CCOCC2)ncn1 | -0.6452% | 3.016%
COc1ccc(CNCc2cc(Br)c3c(c2)OCO3)cc1 | 3.913% | 0.4817%
NC(Cc1nc(-c2ccccc2)no1)c1ccccc1 (stereo unspecified) | 9.794% & 36.72% | -0.4045%
Cc1n[nH]c(C)c1NC(=O)C1CCCN(C(=O)NCC(C)C)C1 (stereo unspecified) | -1.695% | -1.708%
CN(Cc1nc2c(cnn2C)c(=O)[nH]1)Cc1ccco1 | -2.968% | 20.64%
CC(C)[C@H](NS(C)(=O)=O)C(=O)NCc1cc(-c2ccco2)n[nH]1 | 3.735% | -
COc1cccc2ccn(CCC(=O)N3CCCC(C(=O)O)C3)c12 (stereo unspecified) | 4.184% | 2.436%
COc1ccc(CN2CCCCC2CNC(=O)OC(C)(C)C)cc1F (stereo unspecified) | -3.084% | -3.185%
CC(=O)NCCc1ccc(S(=O)(=O)Nc2cc(F)ccc2C)s1 | 2.155% | -0.8961%
CN(C)CCCN1CC2(CCN(C3CCCOC3)CC2)OC1=O (stereo unspecified) | -3.016% | -2.826%
COCCNC(=O)c1cccnc1Oc1ccc(Cl)cc1 | 5.097% | -
c1nc(NCc2cc3n(n2)CCN(C2CCCCC2)C3)c2nc[nH]c2n1 | 1.148% | 4.059%
O=C(c1cccnc1)N1CCc2c(nc(N3CCCC3)[nH]c2=O)C1 | 0.7353% | -
COCCCn1ccnc1-c1cnc(OC)nc1 | -3.625% | -2.245%
CC[C@]12CN3C[C@](C)(CN(C1)C3c1[nH]c(=O)[nH]c(=O)c1C)C2=O (stereo partly specified) | -0.2421% | -0.6958%
CCCN1C(=O)[C@H]2CC[C@@H]1CN(S(=O)(=O)c1cccc(Cl)c1)C2 | 5.66% | 2.177%
CC(C)c1nnc2n1CC(CNCc1ccsc1)CC2 (stereo unspecified) | 13.2% | 2.437%
CCOC(=O)Cc1csc(NC(=O)c2ccc(=O)[nH]n2)n1 | 0.9223% | -1.866%
CCN1Cc2ccccc2CC2(CCN(C(=O)N(C)C)CC2)C1=O | 1.22% | -
NC(=O)COc1ccc(CNCc2cc(F)cc(F)c2)cc1 | 2.551% | -0.3819%
O=C1O[C@@H]2CN(Cc3ccccc3)C[C@@H]2N1CCCN1CCOCC1 | -12.5% | 3.197%
CCCN(c1ccccc1C(=O)O)S(=O)(=O)c1ccc2ccccc2c1 | -8.961% | -4.658%
Cc1cc(C2CCCN(C(=O)c3ccc(OCC4CC4)nc3)C2)n[nH]1 (stereo unspecified) | 1.583% | 3.865%
CCN1CCN(C)C(=O)C12CCN(Cc1ccsc1)CC2 | 5.598% | -5.578%
N#CC1(C(=O)N2CCCN(c3nccs3)CC2)CCCCC1 | 3.169% | -4.457%
O=C(c1ccccc1F)N1CCOC(c2nc(-c3ncccn3)no2)C1 (stereo unspecified) | 1.937% | -
Cc1cc(C)n2c(CNCc3ccc(OC(F)F)cc3)cnc2n1 | -1.789% | 3.307%
CCCn1nnc(NCc2cc(Br)cc(Br)c2OC)n1 | -0.9709% | -3.888%
O=C(c1ccncc1)N1CCCC2(CCN(c3cccnc3)C2=O)C1 (stereo unspecified) | 3.268% | 10.69%
COCc1ccc(C(=O)N2CCN(CC(C)O)CC2)cc1 (stereo unspecified) | 5.839% | 3.171%
O=C(c1n[nH]cc1Cl)N1CCOC(Cc2cccc(C(F)(F)F)c2)C1 (stereo unspecified) | 11.11% | -2.876%
COc1ccc(F)cc1NC(=O)NCC1(C)COC1 | 2.564% | -7.209%
CC(C)CNC(=O)N1C[C@H]2CCN[C@H]2C1 | 1.781% | -4.77%
CC(C)(C)CN[C@@H]1CO[C@H](CNC(=O)c2cccs2)[C@H]1O | -5.643% | -4.292%
CC(C)n1nccc1CN1Cc2nccn2CC1c1ccccc1 (stereo unspecified) | -6.538% | -3.329%
O=C1CN(S(=O)(=O)CC(F)(F)F)CC(O)CN1CCCc1ccccc1 (stereo unspecified) | 1.35% | -
COC(=O)CCCN(C)C(c1cccnc1)c1ccc(F)cc1F (stereo unspecified) | 1.091% | -2.559%
Cn1ncc2c1CCCC2NCc1ccc(OCc2cccnc2)cc1 (stereo unspecified) | 11.17% | -2.142%
CN(C)c1cccc(C(=O)N2CCn3c(nnc3-c3ccccc3)C2)c1 | - | -1.754%
NCC1CCC(c2c(C(=O)NCCO)sc3ccccc23)CC1 (stereo unspecified) | 6.176% | 1.427%
CC(=O)N1CCCC1c1nccnc1Nc1ncccn1 (stereo unspecified) | 1.699% | -
CC(C)NC(=O)N1CCCC2(CCCCN2)C1 (stereo unspecified) | 3.562% | -4.77%
Cc1nn(C)c2nc(-c3ccccn3)nc(NC[C@@H]3CCCO3)c12 | -2.258% | 2.468%
O=C(c1ccc(Cl)cc1)N1CCn2c(nn(-c3cccc(Cl)c3)c2=O)C1 | -8.158% | -5.618%
CCc1nc(C(=O)N2CCOCC2CC(=O)c2ccccc2)c[nH]1 (stereo unspecified) | -0.489% | -4.15%
CCc1nncn1CCNC(=O)Nc1ccc2c(c1)CCCO2 | 10.89% | -4.479%
CC(NCc1c(C(C)C)nn(C)c1N1CCOCC1)C(=O)N(C)C (stereo unspecified) | 4.737% | 71.39%
O=C1CC(CNc2cncc(Cl)n2)c2ccccc2N1 (stereo unspecified) | 6.407% | 3.604%
CCOc1ccc(C(=O)N2CCCC2Cn2cc(C)cn2)cn1 (stereo unspecified) | 2.368% | -6.952%
CCn1nc(C)c(CN2CCCC(c3ccc(C(=O)O)cc3)C2)c1C (stereo unspecified) | 1.72% | 0.3846%
O=C(Cn1c(=O)n(Cc2ccco2)c2ncccc21)NC1CCCCC1 | 3.056% | 5.936%
O=C(NCCc1coc(-c2ccc(F)cc2)n1)NC1CC1 | 3.916% | -8.045%
Cc1nc(C)n(CCNC(=O)C2(C)CC(c3ccccc3)=NO2)n1 (stereo unspecified) | 4.294% | -9.986%
COc1ccc(CC(=O)NCCn2nc3ccccn3c2=O)cc1 | 7.025% | 9.768%
Cn1cc(CN2CCCC3(CCCCN3S(C)(=O)=O)C2)cn1 (stereo unspecified) | 8.316% | 3.743%
Cc1ccccc1C(C(=O)N1CCN(C(=O)c2ccc[nH]2)CC1)N(C)C (stereo unspecified) | 1.711% | 0.8942%
CC(C)c1cc(C(=O)N2CCc3nc(C4CCCN4)ncc3C2)cs1 (stereo unspecified) | 0.2433% | -1.913%
Cc1cnn(CCNCc2nc(Cc3ccccc3)no2)c1 | 2.66% | -2.83%

For reference, 5 entries once more:

{"structure": "O=C(Cn1c(=O)n(Cc2ccco2)c2ncccc21)NC1CCCCC1", "CoaBC": 3.056, "MtTrpRS": 5.936}
{"structure": "O=C(CSc1ccccc1)N1C[C@H]2CC[C@@H]1CN(Cc1ccncc1)C2", "CoaBC": -19.96, "MtTrpRS": -0.1006}
{"structure": "COc1ccc(CN2CCCCC2CNC(=O)OC(C)(C)C)cc1F", "stereo": "stereo unspecified", "CoaBC": -3.084, "MtTrpRS": -3.185}
{"structure": "CC(=O)NCCc1ccc(S(=O)(=O)Nc2cc(F)ccc2C)s1", "CoaBC": 2.155, "MtTrpRS": -0.8961}
{"structure": "CCCn1nnc(NCc2cc(Br)cc(Br)c2OC)n1", "CoaBC": -0.9709, "MtTrpRS": -3.888}